# Test results published in the supplement of paper PMC8728848.
# This is one part of the list.
# B1: Intelectin-1a (Mus musculus) (protein)
# chain: AEWSHPQFEKAEENLDTNRWGNSFFSSLPRSCKEIKQEHTKAQDGLYFLRTKNGVIYQTFCDMTTAGGGWTLVASVHENNMRGKCTVGDRWSSQQGNRADYPEGDGNWANYNTFGSAEAATSDDYKNPGYFDIQAENLGIWHVPNKSPLHNWRKSSLLRYRTFTGFLQHLGHNLFGLYKKYPVKYGEGKCWTDNGPALPVVYDFGDARKTASYYSPSGQREFTAGYVQFRVFNNERAASALCAGVRVTGCNTEHHCIGGGGFFPEGNPVQCGDFASFDWDGYGTHNGYSSSRKITEAAVLLFYR
# Legend:
# Assay in all cases: glycan array binding signal (z-score within array); higher = stronger binding
# Details in all cases: glycan notation: IUPAC condensed, linker removed
# [1] = target: Gal(b1-4)GlcNAc(b1-3)[GlcNAc(b1-6)]Gal(b1-4)GlcNAc
# Procedure, shortened: (§1)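 Glycan array data were curated from 3228 arrays in the Consortium for Functional Glycomics database and kept only where the protein sequence was available. Glycan names were converted to IUPAC-condensed notation, and columns mapping to the same glycan were averaged. The binding signal is a within-array Z-score, averaged across arrays of the same protein sequence at different concentrations or buffers and across linkers. Negative Z-scores can be read as non-binding.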
# [2] = target: Gal(b1-4)GlcNAc(b1-6)Gal(b1-4)GlcNAc
# Procedure, shortened: as §1
# [3] = target: Gal(b1-4)GlcNAc(b1-6)GalNAc
# Procedure, shortened: as §1
# [4] = target: Gal(b1-4)GlcNAc(b1-6)[Gal(b1-3)]GalNAc
# Procedure, shortened: as §1
# Gal(b1-4)GlcNAc6P = target: Gal(b1-4)GlcNAc6P
# Procedure, shortened: as §1
# Gal(b1-6)Gal = target: Gal(b1-6)Gal
# Procedure, shortened: as §1
# Gal3S(b1-3)GalNAc = target: Gal3S(b1-3)GalNAc
# Procedure, shortened: as §1
# Gal3S(b1-3)GlcNAc = target: Gal3S(b1-3)GlcNAc
# Procedure, shortened: as §1
# [5] = target: Gal3S(b1-3)[Fuc(a1-4)]GlcNAc
# Procedure, shortened: as §1
# Gal3S(b1-4)Glc = target: Gal3S(b1-4)Glc
# Procedure, shortened: as §1
# Gal3S(b1-4)Glc6S = target: Gal3S(b1-4)Glc6S
# Procedure, shortened: as §1
# Gal3S(b1-4)GlcNAc = target: Gal3S(b1-4)GlcNAc
# Procedure, shortened: as §1
# Gal3S(b1-4)GlcNAc6S = target: Gal3S(b1-4)GlcNAc6S
# Procedure, shortened: as §1
# [6] = target: Gal3S(b1-4)[Fuc(a1-3)]Glc
# Procedure, shortened: as §1
# [7] = target: Gal3S(b1-4)[Fuc(a1-3)]Glc6S
# Procedure, shortened: as §1
# Gal3S4S(b1-4)GlcNAc = target: Gal3S4S(b1-4)GlcNAc
# Procedure, shortened: as §1
# Gal3S6S(b1-4)GlcNAc = target: Gal3S6S(b1-4)GlcNAc
# Procedure, shortened: as §1
# Gal3S6S(b1-4)GlcNAc6S = target: Gal3S6S(b1-4)GlcNAc6S
# Procedure, shortened: as §1
# Gal4S(b1-4)GlcNAc = target: Gal4S(b1-4)GlcNAc
# Procedure, shortened: as §1
# Gal4S6S(b1-4)GlcNAc = target: Gal4S6S(b1-4)GlcNAc
# Procedure, shortened: as §1
# Gal6P(b1-4)GlcNAc = target: Gal6P(b1-4)GlcNAc
# Procedure, shortened: as §1
# Gal6S(b1-3)GlcNAc = target: Gal6S(b1-3)GlcNAc
# Procedure, shortened: as §1
# Gal6S(b1-3)GlcNAc6S = target: Gal6S(b1-3)GlcNAc6S
# Procedure, shortened: as §1
# Gal6S(b1-4)Glc = target: Gal6S(b1-4)Glc
# Procedure, shortened: as §1
# Gal6S(b1-4)Glc6S = target: Gal6S(b1-4)Glc6S
# Procedure, shortened: as §1
# Gal6S(b1-4)GlcNAc = target: Gal6S(b1-4)GlcNAc
# Procedure, shortened: as §1
# Gal6S(b1-4)GlcNAc6S = target: Gal6S(b1-4)GlcNAc6S
# Procedure, shortened: as §1
# GalNAc(a1-3)Gal = target: GalNAc(a1-3)Gal
# Procedure, shortened: as §1
# GalNAc(a1-3)GalNAc = target: GalNAc(a1-3)GalNAc
# Procedure, shortened: as §1
# [8] = target: GalNAc(a1-3)GalNAc(b1-3)Gal(a1-4)Gal(b1-4)Glc
# Procedure, shortened: as §1
# [9] = target: GalNAc(a1-3)GalNAc(b1-3)Gal(a1-4)Gal(b1-4)GlcNAc
# Procedure, shortened: as §1
# GalNAc(b1-3)Gal = target: GalNAc(b1-3)Gal
# Procedure, shortened: as §1
# [10] = target: GalNAc(b1-3)Gal(a1-4)Gal(b1-4)GlcNAc
# Procedure, shortened: as §1
# [11] = target: GalNAc(b1-3)Gal(a1-4)Gal(b1-4)GlcNAc(b1-3)Gal(b1-4)Glc
# Procedure, shortened: as §1
# [12] = target: GalNAc(b1-3)Gal(a1-6)Gal(b1-4)Glc
# Procedure, shortened: as §1
# GalNAc(b1-3)GalNAc = target: GalNAc(b1-3)GalNAc
# Procedure, shortened: as §1
# GalNAc(b1-4)Gal(b1-4)Glc = target: GalNAc(b1-4)Gal(b1-4)Glc
# Procedure, shortened: as §1
# GalNAc(b1-4)GlcNAc = target: GalNAc(b1-4)GlcNAc
# Procedure, shortened: as §1
# [13] = target: GalNAc(b1-4)GlcNAc(b1-2)Man(a1-3)[GalNAc(b1-4)GlcNAc(b1-2)Man(a1-6)]Man(b1-4)GlcNAc(b1-4)GlcNAc
# Procedure, shortened: as §1
# GalNAc(b1-4)GlcNAc6S = target: GalNAc(b1-4)GlcNAc6S
# Procedure, shortened: as §1
# GalNAc(b1-6)GalNAc = target: GalNAc(b1-6)GalNAc
# Procedure, shortened: as §1
# GalNAc3S(b1-4)GlcNAc = target: GalNAc3S(b1-4)GlcNAc
# Procedure, shortened: as §1
# GalNAc3S(b1-4)GlcNAc3S = target: GalNAc3S(b1-4)GlcNAc3S
# Procedure, shortened: as §1
# GalNAc4S6S(b1-4)GlcNAc = target: GalNAc4S6S(b1-4)GlcNAc
# Procedure, shortened: as §1
# GalNAc6S(b1-4)GlcNAc = target: GalNAc6S(b1-4)GlcNAc
# Procedure, shortened: as §1
binder,measurement,setting,value
B1,glycan array binding signal (z-score),[1],1.05
same,glycan array binding signal (z-score),[2],0.3
same,glycan array binding signal (z-score),[3],-0.792
same,glycan array binding signal (z-score),[4],-0.346
same,glycan array binding signal (z-score),Gal(b1-4)GlcNAc6P,0.124
same,glycan array binding signal (z-score),Gal(b1-6)Gal,-0.657
same,glycan array binding signal (z-score),Gal3S(b1-3)GalNAc,-0.527
same,glycan array binding signal (z-score),Gal3S(b1-3)GlcNAc,-0.392
same,glycan array binding signal (z-score),[5],-0.061
same,glycan array binding signal (z-score),Gal3S(b1-4)Glc,-0.304
same,glycan array binding signal (z-score),Gal3S(b1-4)Glc6S,-0.631
same,glycan array binding signal (z-score),Gal3S(b1-4)GlcNAc,-0.181
same,glycan array binding signal (z-score),Gal3S(b1-4)GlcNAc6S,-0.261
same,glycan array binding signal (z-score),[6],1.22
same,glycan array binding signal (z-score),[7],-0.771
same,glycan array binding signal (z-score),Gal3S4S(b1-4)GlcNAc,0.741
same,glycan array binding signal (z-score),Gal3S6S(b1-4)GlcNAc,0.047
same,glycan array binding signal (z-score),Gal3S6S(b1-4)GlcNAc6S,-0.423
same,glycan array binding signal (z-score),Gal4S(b1-4)GlcNAc,-0.354
same,glycan array binding signal (z-score),Gal4S6S(b1-4)GlcNAc,0.272
same,glycan array binding signal (z-score),Gal6P(b1-4)GlcNAc,0.455
same,glycan array binding signal (z-score),Gal6S(b1-3)GlcNAc,-0.506
same,glycan array binding signal (z-score),Gal6S(b1-3)GlcNAc6S,-0.024
same,glycan array binding signal (z-score),Gal6S(b1-4)Glc,-0.261
same,glycan array binding signal (z-score),Gal6S(b1-4)Glc6S,-0.38
same,glycan array binding signal (z-score),Gal6S(b1-4)GlcNAc,-0.621
same,glycan array binding signal (z-score),Gal6S(b1-4)GlcNAc6S,0.26
same,glycan array binding signal (z-score),GalNAc(a1-3)Gal,0.3
same,glycan array binding signal (z-score),GalNAc(a1-3)GalNAc,-0.008
same,glycan array binding signal (z-score),[8],-1.58
same,glycan array binding signal (z-score),[9],-1.22
same,glycan array binding signal (z-score),GalNAc(b1-3)Gal,-0.938
same,glycan array binding signal (z-score),[10],-0.267
same,glycan array binding signal (z-score),[11],0.026
same,glycan array binding signal (z-score),[12],0.658
same,glycan array binding signal (z-score),GalNAc(b1-3)GalNAc,0.779
same,glycan array binding signal (z-score),GalNAc(b1-4)Gal(b1-4)Glc,-0.303
same,glycan array binding signal (z-score),GalNAc(b1-4)GlcNAc,0.361
same,glycan array binding signal (z-score),[13],0.434
same,glycan array binding signal (z-score),GalNAc(b1-4)GlcNAc6S,1.21
same,glycan array binding signal (z-score),GalNAc(b1-6)GalNAc,-0.946
same,glycan array binding signal (z-score),GalNAc3S(b1-4)GlcNAc,0.183
same,glycan array binding signal (z-score),GalNAc3S(b1-4)GlcNAc3S,-0.587
same,glycan array binding signal (z-score),GalNAc4S6S(b1-4)GlcNAc,0.122
same,glycan array binding signal (z-score),GalNAc6S(b1-4)GlcNAc,0.284
